Source: patent publication US20230129326A1, “METHODS TO PREVENT SARS-COV-2 INFECTION AND TREAT COVID-19” (priority 2020, published 2023)
≈ marks a conversion by molar mass, not a printed value.

Tested on: SARS-CoV-2 isolate USA-UF-1/2020
Test: microbe, parasite or virus in culture
Type: cell-based
Conditions: Severe acute respiratory syndrome coronavirus 2, Vero C1008, read-out: EC50, 50% inhibition of SARS-CoV-2 isolate USA-UF-1/2020 infection of Vero E6 cells

Structure (SMILES): CN(C)CCOC(c1ccccc1)c1ccccc1 [diphenhydramine]
- EC50: 17.4 µg/mL (≈ 68.1 µM)
